57 molecules from PubChem BioAssay AID1487 (National Center for Advancing Translational Sciences (NCATS), 2009) can be followed below.

This is one part of the list. Further columns of the screen follow, without active or inactive calls. Most of these compounds were active or inconclusive in the main read-out, so they are no random draw. Potencies come from curve fits of mixed quality, noted in brackets.

The assay can be described thus: qHTS Assay for Modulators of Lamin A Splicing. As to conditions: HeLa LMNA splicing GFP/RFP minigene ratio, 48 h. Put shortly: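 S3 HeLa cells stably expressing lamin A-EGFP splicing minigene plus DsRed2, 600 cells/well, 48 h compound exposure at 37C. Laser-scanning cytometry; analysed as GFP (500-530 nm)/RFP (575-640 nm) total intensity ratio; 0.5% DMSO vehicle.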

Setting [1] is: measured here: GFP splicing reporter channel.
Where [2] appears, read: measured here: RFP viability control channel.

What is called AC50 is the concentration giving half of the maximal activity seen. With `O=C(NCCS(=O)(=O)N1CCN(c2ccccc2F)CC1)c1cc(=O)c2ccccc2o1`, the AC50 is, setting by setting: under setting [1], 0.01 µM [falling, full curve, poor fit]; under setting [2], 0.00355 µM [falling, full curve, poor fit]. As to `CC1CCCN(c2ccc(C(=O)NCc3ccc4c(c3)OCO4)cc2[N+](=O)[O-])C1` (centres undefined), under setting [2], the half-maximal activity concentration (AC50) is 35.5 µM [rising, single point].

For the molecule `NCCCCCCCCCCN`, under setting [2], the AC50 was 0.0178 µM [falling, full curve, poor fit]. Turning to `COc1ccc(-c2cc(=O)oc3cc(OCC(=O)c4cccc([N+](=O)[O-])c4)ccc23)cc1`, the AC50 under setting [2] is 7.94 µM [rising, partial curve].

For `COc1ccc(-c2nnc(SCc3cccnc3)o2)cc1`, the AC50 by setting is: under setting [1], 31.6 µM [rising, single point]; under setting [2], 15.8 µM [rising, single point]. Turning to `O=C(CCc1ccccc1)Nc1ccc(F)c([N+](=O)[O-])c1`, the AC50 under setting [2] is 0.0891 µM [falling, full curve, poor fit]. For `O=c1c(S(=O)(=O)c2ccccc2)cn(Cc2ccc(F)cc2)c2cc(N3CCCC3)c(F)cc12`, the AC50 under setting [1] was 1.41 µM [rising, single point]. Regarding `CC(C)(C)c1ccc(OCc2ccc(C(=O)N/N=C3\CC4CC=CC34)cc2)cc1` (centres undefined), the AC50 under setting [2] was 15.8 µM [rising, single point]. On to `C(#Cc1ccccc1)C[N+]1(CC#Cc2cccc3ccccc23)CCCC1`, for which the AC50 under setting [1] was 12.6 µM [rising, single point]. Regarding `O=C(/C=C/c1ccc([N+](=O)[O-])cc1)N1CCN(S(=O)(=O)c2cccs2)CC1`, the AC50 under setting [1] was 35.5 µM [rising, single point].

In the case of `COCCCn1c(C)c(C(C)=O)cc(NC(=O)c2ccccc2)c1=O`, the AC50 under setting [1] was 1.12 µM [rising, single point]. Consider `COc1ccccc1-c1cc(C(F)(F)F)nc(N2CCOCC2)n1`, for which the AC50 under setting [2] is 17.8 µM [falling, single point]. Consider `COCCNC(=O)C(c1ccc(Cl)cc1)N(C(=O)Cn1nnc2ccccc21)c1cccnc1` (centres undefined), for which the half-maximal activity concentration (AC50) under setting [2] was 1.26 µM [falling, full curve, poor fit]. As for `CCCC1CC(C)(c2csc(Nc3ccc(OCC)cc3)n2)OC1=O` (centres undefined), the AC50 under setting [2] is 20 µM [rising, single point]. Still for that read-out and setting: under `O=C(NC(NC(=S)Nc1ccccc1O)C(Cl)(Cl)Cl)c1ccco1` (centres undefined) stands 25.1 µM [rising, single point]; under `CN(CC(=O)N1CCCCC1)S(=O)(=O)c1cccc2cccnc12`, 20 µM [rising, partial curve, poor fit]. As to `CC(=O)Nc1cc(S(=O)(=O)Nc2cccc(C)c2)c(C)cc1C`, under setting [1], the AC50 is 0.708 µM [falling, single point].

`CCOC(=O)c1cc(S(=O)(=O)N2CCN(c3cccc(C)c3)C(C)C2)[nH]n1` (centres undefined): the AC50 under setting [2] was 22.4 µM [rising, single point]. `COc1ccccc1CNc1nc(-c2cccc(C#N)c2)nc2ccccc12`: the AC50 was 28.2 µM [falling, single point] under setting [1] and 22.4 µM [falling, single point] under setting [2]. Take `Cc1ccc2nc3sc(C(=O)Nc4ccc(F)cc4)cc3cc2c1`: the AC50 under setting [2] is 0.00112 µM [falling, full curve].

Take `COc1ccc(N2CCN(C(=S)Nc3ccc(S(N)(=O)=O)cc3)CC2)cc1`: the AC50 runs as follows: under setting [1], 17.8 µM [falling, partial curve, poor fit]; under setting [2], 10 µM [falling, partial curve]. On to `Cc1ccc(C(=O)n2c3ccccc3c3ccccc32)cc1`, for which the AC50 under setting [2] was 3.98 µM [rising, full curve, poor fit]. Turning to `Cc1nn(C)c(-c2n[nH]c(=S)n2-c2ccccc2)c1Cl`, the AC50 under setting [1] was 5.01 µM [falling, partial curve] and the AC50 under setting [2] was 0.1 µM [falling, full curve, poor fit].

For the molecule `O=C(c1cccnc1)N1N=C(C2CC2)CC1(O)C(F)(F)F` (centres undefined), the AC50 under setting [1] was 35.5 µM [falling, single point]. With `O=S(=O)(c1ccc(Br)cc1)c1cnc2ccccc2n1`, the AC50 is, setting by setting: under setting [1], 35.5 µM [falling, partial curve, poor fit]; under setting [2], 31.6 µM [falling, single point]. As to `Cc1ccc(NC2=NC3(CCCC3)N=C(N)N2)c(C)c1`, the AC50 under setting [2] was 12.6 µM [rising, single point].

Turning to `COc1cc(/C=N/O)cc(Br)c1OCc1ccc(Cl)cc1`, the AC50 reads like this: under setting [1], 22.4 µM [falling, single point]; under setting [2], 35.5 µM [falling, single point]. Consider `Cc1ccc(CNC(=O)c2cnc(N3CCCC3)nc2C)cc1`, for which, under setting [1], the AC50 was 0.00447 µM [rising, full curve, poor fit]. For `CCCCN(CC)Cc1ccc(CNC(=O)Nc2ccc(Cl)cc2)o1`, the AC50 under setting [2] is 5.62 µM [rising, single point]. As to `CN(C(=O)CSc1nc2ccc(NC(=O)c3ccco3)cc2s1)c1ccccc1`, under setting [1], the AC50 was 0.00447 µM [rising, full curve, poor fit]. With `CCn1c(=O)cc(OCC(=O)NCCCN2CCN(c3cccc(Cl)c3)CC2)c2ccccc21`, under setting [2], the AC50 is 22.4 µM [rising, single point]. Turning to `CN1CCN(CCCNC(=O)c2cc3c(-c4ccc(Cl)cc4)nn(C)c3s2)CC1`, the AC50 is 35.5 µM [rising, single point] under setting [1] and 35.5 µM [rising, single point] under setting [2]. `O=C(C[n+]1cccc(CNC(=O)c2ccc(OC(F)F)cc2)c1)c1ccccc1`: the AC50 reads like this: under setting [1], 2 µM [rising, full curve, poor fit]; under setting [2], 7.08 µM [rising, partial curve]. As to `CCc1ccc(C2=CC(c3cccc(OC)c3OC)n3c(nc4ccccc43)N2)cc1` (centres undefined), the AC50 under setting [1] was 0.0126 µM [rising, full curve, poor fit]. Turning to `Nc1c(-c2cccs2)cnn1-c1nc(-c2ccc(Cl)cc2Cl)cs1`, the AC50 under setting [1] was 14.1 µM [falling, partial curve] and the AC50 under setting [2] is 14.1 µM [falling, partial curve, poor fit]. For `O=C(Nc1ccc(Cl)cc1)c1cccs1`, the AC50 is, setting by setting: under setting [1], 14.1 µM [rising, single point]; under setting [2], 31.6 µM [rising, single point]. On to `Cc1ccccc1Nc1nnc(SCC(=O)Nc2ccccc2[N+](=O)[O-])s1`, for which the concentration at half-maximal activity (AC50) under setting [2] is 31.6 µM [rising, single point]. As to `Cc1ccc(N2CCN(S(=O)(=O)c3nnc(NC(=O)c4cccc(F)c4)s3)CC2)cc1`, the AC50 is 0.2 µM [rising, full curve, poor fit] under setting [1] and 0.355 µM [rising, full curve, poor fit] under setting [2].

In the case of `COc1cccc(NC(=O)C2CCN(Cc3cnn(-c4ccccc4)c3-n3cccc3)CC2)c1`, the AC50 under setting [2] is 12.6 µM [rising, partial curve].

`COc1ccc(-c2nc(-c3ccccc3)c(-c3cccs3)[nH]2)cc1OC`: the AC50 is 20 µM [rising, single point] under setting [1] and 17.8 µM [rising, single point] under setting [2]. For `CCCCCOC(=O)C1=C(C)N(C)C(=O)NC1c1cc(Br)c(O)c(OC)c1` (centres undefined), under setting [2], the AC50 was 28.2 µM [rising, single point]. For `N#Cc1nc(-c2cccs2)oc1N1CCN(Cc2ccccc2)CC1`, the AC50 under setting [2] was 20 µM [rising, single point]. `N#CCCN1CCN(C(=S)c2ccc(-c3ccc(Cl)c(Cl)c3)o2)CC1`: the AC50 under setting [1] was 12.6 µM [rising, single point].

For the molecule `CC(=O)OC1CCC2(C)C(COc3ccc4ccc(=O)oc4c3)C(C)(O)CCC2C1(C)C` (centres undefined), the AC50 under setting [2] is 22.4 µM [rising, single point]. In the case of `COc1ccc([N+](=O)[O-])cc1-n1cnnn1`, the AC50 reads like this: under setting [1], 0.00501 µM [rising, full curve]; under setting [2], 0.00501 µM [rising, full curve, poor fit].

As to `N#CC(C#N)=C1C=CC=CN1/C(=C\c1ccco1)C(=O)c1ccc(Cl)cc1`, the AC50 under setting [1] was 5.62 µM [falling, full curve] and the AC50 under setting [2] was 6.31 µM [falling, partial curve]. For the molecule `CC(C)(C)C1CCc2onc(C(=O)Nc3cccc(O)c3)c2C1` (centres undefined), the AC50 under setting [2] is 20 µM [rising, single point].

In the case of `Cc1ccc2nc(Cl)c(C3CC(c4cccs4)=NN3C(=O)CCC(=O)O)cc2c1` (centres undefined), the AC50 under setting [2] is 3.16 µM [rising, full curve, poor fit].

In the case of `CCCN1CCN(CCCNC(=O)c2cc3c(=O)[nH]c4ccccc4c3s2)CC1`, under setting [1], the half-maximal activity concentration (AC50) is 0.158 µM [falling, full curve, poor fit]. As for `COCC(=O)NCCc1nc2ccccc2[nH]1`, under setting [2], the AC50 was 0.02 µM [rising, full curve]. As to `CN(Cc1ccccc1)S(=O)(=O)c1ccc2[nH]cc(C(=O)NCC3CCCO3)c(=O)c2c1` (centres undefined), under setting [1], the AC50 was 22.4 µM [rising, single point]. For the molecule `COc1ccc(CCNC(=O)c2cc(-c3ccc(C)cc3)nc3n[nH]c(-c4ccc(F)cc4)c23)cc1OC`, the AC50 under setting [2] is 35.5 µM [falling, single point]. As for `CC1CCN(S(=O)(=O)c2ccc(C(=O)NCc3cccnc3)cc2)CC1`, the AC50 under setting [2] is 1.78 µM [falling, partial curve, poor fit].

Take `O=S(=O)(NC1CCCC1)c1cccc(S(=O)(=O)N2CCC(n3nnc4ccccc43)CC2)c1`: the AC50 is 11.2 µM [rising, single point] under setting [1] and 20 µM [rising, single point] under setting [2].

For `c1ccc(Cn2ccnc2SCc2nnc(-c3ccccc3)o2)cc1`, the AC50 under setting [1] is 17.8 µM [rising, partial curve] and the AC50 under setting [2] is 15.8 µM [rising, single point]. Turning to `O=C(CCSCCc1ccccn1)Nc1ccccc1C(F)(F)F`, the AC50 under setting [2] is 22.4 µM [rising, single point].

As for `Cc1ccc(NC(=O)c2ccc(OC(=S)N3CCOCC3)cc2)cc1`, under setting [2], the AC50 is 22.4 µM [falling, single point].
